In publication PMC7819943, “Rice protein-binding microarrays: a tool to detect cis-acting elements near promoter regions in rice”:
The other results are listed elsewhere or left out.

target: T1, OsSMF1 (Oryza sativa, UniProt Q6ZLB0 1-436); assay: protein-binding microarray (RPBM); PBS, 2% BSA, 51.3 ng/ul salmon testes DNA, 50 uM zinc acetate, 200 nM TF, 25 C, 1 h; high values mean tight binding; settings: protein: recombinant; tags: N-terminal polyhistidine and DsRed monomer fusion (pET32a); chain copies: 2; label: CyDye5-dUTP incorporated in the synthesized complementary strand; 3' TTTTT single-stranded linker to array surface; dsDNA, one strand shown
T1 sequence: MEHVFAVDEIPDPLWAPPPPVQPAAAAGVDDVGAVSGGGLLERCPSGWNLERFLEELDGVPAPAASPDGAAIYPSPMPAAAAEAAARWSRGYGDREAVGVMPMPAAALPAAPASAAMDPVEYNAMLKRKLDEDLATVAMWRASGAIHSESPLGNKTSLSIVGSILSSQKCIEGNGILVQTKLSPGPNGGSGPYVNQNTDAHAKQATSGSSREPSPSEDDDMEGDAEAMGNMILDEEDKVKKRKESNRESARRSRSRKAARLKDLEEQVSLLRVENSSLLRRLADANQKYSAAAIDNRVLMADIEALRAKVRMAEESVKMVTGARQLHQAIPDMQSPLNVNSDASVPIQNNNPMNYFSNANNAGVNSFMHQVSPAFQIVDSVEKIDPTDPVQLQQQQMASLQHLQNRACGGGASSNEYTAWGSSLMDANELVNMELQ
Summary of the method: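 In PBS with 2% BSA, salmon testes DNA and 50 µM zinc acetate, 200 nM protein was incubated on a custom Agilent array at 25 °C for 1 h and then washed off. The array had been made double-stranded by primer extension with Cy5-dUTP and blocked with 2% BSA. The proteins were transcription factors fused N-terminally to polyhistidine and DsRed, expressed in E. coli BL21-CodonPlus and purified on Ni–NTA. The binding signal is per-feature fluorescence intensity (arbitrary units) from an Axon 4000B scanner.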

Sequence	binding signal
GAGTTAAGTAATGTGACGTCTGACAGCGGAGGCTCGTGTACGGAGTCACCTAGTGCAG	4540 fluorescence intensity (a.u.)
AGTTCGACTGCTAGTCACAGTCTATGAGGTTTGGGCGACCCGGAGTCACCTAGTGCAG	3520 fluorescence intensity (a.u.)
AGATTATTACAATGTATAAGCCAGATTACTATAATCCAATCGGAGTCACCTAGTGCAG	28600 fluorescence intensity (a.u.)
AAGCCAGGGGTCTCCTCGTCACGCTCGGCCTTGCGGTCTCCGGAGTCACCTAGTGCAG	5120 fluorescence intensity (a.u.)
TACGCAGCACAAAGGGAAGGAGCTGGCATCGAACAGGCGCCGGAGTCACCTAGTGCAG	3470 fluorescence intensity (a.u.)
GCCAACCCGCTGGCCCGCCGCCACGCGCGCGTCCCCGTCGCGGAGTCACCTAGTGCAG	5080 fluorescence intensity (a.u.)
CCTCCCCACGCGCGCCGCCTTGCCCACCACCTCCAATCGTCGGAGTCACCTAGTGCAG	9460 fluorescence intensity (a.u.)
CATCAATGACGTTACACAAACTCTGTCATTCCAACTGGAACGGAGTCACCTAGTGCAG	4460 fluorescence intensity (a.u.)
TCCATCATCTTAAATCAGGGATTCTCTATATATTCAACTGCGGAGTCACCTAGTGCAG	15300 fluorescence intensity (a.u.)
GAACATTTGAGCTTTCTCACTCACTCATCACCATGGCCTTCGGAGTCACCTAGTGCAG	3310 fluorescence intensity (a.u.)
TATCTCGATGCAGTAATGATCGATGCACGGCGCGCGTTATCGGAGTCACCTAGTGCAG	3380 fluorescence intensity (a.u.)
GCGCGAGCGTGGATCAAGGCGGGAGGCACATGAATCATAGCGGAGTCACCTAGTGCAG	3560 fluorescence intensity (a.u.)
TTATTCCATCAGGAAACCGATCTCCCAGTGGGCCGCGCCCCGGAGTCACCTAGTGCAG	3320 fluorescence intensity (a.u.)
CGATGCTTAAAGTAAACCAAGCAATCACCACGTAAATCGACGGAGTCACCTAGTGCAG	3360 fluorescence intensity (a.u.)
TGCTTGGCACCATCATTAACACGCCATACTTAACGCTGATCGGAGTCACCTAGTGCAG	4790 fluorescence intensity (a.u.)
GCCGTCCTTGTAGCCGACGGGGCAAAACATGCAAATTGACCGGAGTCACCTAGTGCAG	3300 fluorescence intensity (a.u.)
ATGGTGAAATTATAGGTGCATCGTTCTATCCACTATAGGGCGGAGTCACCTAGTGCAG	5810 fluorescence intensity (a.u.)
AAATCAACTCTTTATGTGTCGCCAATTCAGGCGGAACTTGCGGAGTCACCTAGTGCAG	3520 fluorescence intensity (a.u.)
GGCCCTGCACCCACGTTGGATCCGTCCCTGCAGTCACCTTCGGAGTCACCTAGTGCAG	4190 fluorescence intensity (a.u.)
CGGCACCGTCGCGGCAGTCCGTTGCTGCCGCTGGCCGCCGCGGAGTCACCTAGTGCAG	3320 fluorescence intensity (a.u.)
GATGCGTTCTTCCAGAGGTGTCATTCGCCATTCCGTGTGGCGGAGTCACCTAGTGCAG	4720 fluorescence intensity (a.u.)

Sequence	binding signal
GGAGGAGGTGGCGGCGGAGGGGTTGGTGGTGGAGGTGGTCCGGAGTCACCTAGTGCAG	8220 fluorescence intensity (a.u.)
TCGTCGCACGACCAGACCAGCAGCACCAACTCCCTTTCTGCGGAGTCACCTAGTGCAG	3160 fluorescence intensity (a.u.)
TAGTTTGATTCTCGTGACACATAGGGCGACCTAAGCTTATCGGAGTCACCTAGTGCAG	3660 fluorescence intensity (a.u.)
ATCTTGGATGGGATAACAAGTACTTTAACTGAGGCCGAGTCGGAGTCACCTAGTGCAG	21700 fluorescence intensity (a.u.)
TTCGATCATTTCGTACTGTACGTGGCACATCATGTGTCATCGGAGTCACCTAGTGCAG	12300 fluorescence intensity (a.u.)
CTTTCTCTGTTGATCTTCTCGTGGTGGGTGACTGTGTCAACGGAGTCACCTAGTGCAG	5210 fluorescence intensity (a.u.)
GTCTGTTGCTGTGTTGGACAAGTTTTGTCTGAAAATCGCCCGGAGTCACCTAGTGCAG	3250 fluorescence intensity (a.u.)
TTTAGTCCCGGTTGGTGTTACCAACCGGGACTAAAGATCCCGGAGTCACCTAGTGCAG	23300 fluorescence intensity (a.u.)
CCGGTATCCACTGCGTGCGTGCGTTGCCTGCTAGAATCCCCGGAGTCACCTAGTGCAG	3820 fluorescence intensity (a.u.)
TATTTGTTCGTGACTCTACACTTCTTTTGCCTATTCATCTCGGAGTCACCTAGTGCAG	4670 fluorescence intensity (a.u.)
TCCGTATGAAATAGTGTCTCCGTCAGATTGGGGAAGCGGGCGGAGTCACCTAGTGCAG	3200 fluorescence intensity (a.u.)
GCTGCTAGTAGGCTAATTTCTGCAGTGTGTGTGTGTGTGTCGGAGTCACCTAGTGCAG	3970 fluorescence intensity (a.u.)
ACAACTCACATGGGACATGGCATGTCCTCTCAAACCTTTACGGAGTCACCTAGTGCAG	4890 fluorescence intensity (a.u.)
AGAGGAGAGCCCTCAGCCTCTCCGTCACCCTCATCCTTGTCGGAGTCACCTAGTGCAG	3430 fluorescence intensity (a.u.)
CGTCGTGGAACCACCCGTCGCCCACGTAGGACACGCCCCTCGGAGTCACCTAGTGCAG	6530 fluorescence intensity (a.u.)
ATCCTTTTGCTTATGGTTATGCTTATCTGTATGGCTTATTCGGAGTCACCTAGTGCAG	3650 fluorescence intensity (a.u.)
CGAAAGGTTTCCAGGTACAAGCAACCATAGAGCCAAATCGCGGAGTCACCTAGTGCAG	38300 fluorescence intensity (a.u.)
AAGAGATACACTTTCAAACCATGACGCTATTTTACCTCACCGGAGTCACCTAGTGCAG	3660 fluorescence intensity (a.u.)
GCACCTCATGCAGGGACGACATGGACACGTCACCACTTGACGGAGTCACCTAGTGCAG	24600 fluorescence intensity (a.u.)
ACGACGACGACGTCGACGTGTGAACCAGTCAACTGCCACGCGGAGTCACCTAGTGCAG	8590 fluorescence intensity (a.u.)
GCCATGATCAGTCGCGTCCGCGTCCGCGTCCGCCGCTCGCCGGAGTCACCTAGTGCAG	3640 fluorescence intensity (a.u.)

Two entries from above, bar-delimited:
Sequence | binding signal
GGAGGAGGTGGCGGCGGAGGGGTTGGTGGTGGAGGTGGTCCGGAGTCACCTAGTGCAG | 8220 fluorescence intensity (a.u.)
CGTCGTGGAACCACCCGTCGCCCACGTAGGACACGCCCCTCGGAGTCACCTAGTGCAG | 6530 fluorescence intensity (a.u.)
